Reference: PubChem BioAssay AID652054 (National Center for Advancing Translational Sciences (NCATS), 2013)
Hit rate of the full screen: of about 360,000 compounds, about 9,100 (2.5%) were called active. Inconclusive means that the source gave no clear call. Such entries were picked first, then a sample of the others. No stated cut-off is given here; in the data, active means max response below about -50%; inconclusive means no clear call, values can overlap the other calls; inactive means above that.

The chains behind the UniProt entries cited, without tags or fusion partners.
UniProt P35462, whole entry, looked up: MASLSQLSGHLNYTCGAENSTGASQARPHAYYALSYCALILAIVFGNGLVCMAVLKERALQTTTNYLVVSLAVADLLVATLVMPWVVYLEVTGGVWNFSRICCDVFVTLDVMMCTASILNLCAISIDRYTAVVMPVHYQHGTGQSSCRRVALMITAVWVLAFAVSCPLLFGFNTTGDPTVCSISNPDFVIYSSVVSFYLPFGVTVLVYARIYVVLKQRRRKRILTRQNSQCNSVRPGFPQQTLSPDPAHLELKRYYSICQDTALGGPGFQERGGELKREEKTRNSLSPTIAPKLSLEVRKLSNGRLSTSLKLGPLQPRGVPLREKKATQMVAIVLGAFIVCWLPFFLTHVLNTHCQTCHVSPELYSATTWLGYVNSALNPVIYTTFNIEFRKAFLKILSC

What follows are compounds tested against D(3) dopamine receptor (Homo sapiens) (UniProt P35462) (assay: qHTS of D3 Dopamine Receptor Antagonist: qHTS). Conditions: D3R cells, DiscoveRx beta-arrestin luminescence, antagonist mode; hits give low values.
How it was run: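 Cells plated overnight at 1500 cells/well, then exposed to library compounds with dopamine controls for 90 minutes at 37 degrees C. DiscoveRx reagent added for 30–60 minutes at room temperature; luminescence read, quantitative HTS format.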
On the % scale 0 is the no-effect control and ±100 the full control effect.

SMILES	max response, negative = inhibition
COc1ccccc1NS(=O)(=O)c1cccc(NS(=O)(=O)c2cc(C(=O)O)ccc2Cl)c1	inconclusive: -47.9%
O=C(COCc1cc(-c2ccc3c(c2)OCO3)on1)N1CCCCC1	inconclusive: -30.5%
Cc1ccccc1-c1cc2nc(NCc3ccc(N(C)C)cc3)n(C)c(=O)c2s1	inactive: 0.524%
COc1ccc(/C=C2/CCc3ccccc3C2=O)cc1CN1CCOCC1	inactive: 11.6%
COC(=O)CSc1nc(N2CCOCC2)c2c(c1C#N)CC(C)(C)N(C)C2	active: -53.2%
Cc1ccc(C(=O)N/N=C/c2ccc(-c3ccc(Br)cc3[N+](=O)[O-])o2)o1	inconclusive: -34%
O=c1c(Cl)c(Cl)cnn1Cc1nnc(-c2ccccc2Br)o1	active: -80.9%
CCOc1ccc(OCC(=O)OC(C)C(=O)NC2CCCC2)cc1 (configuration not stated)	inactive: 1.33%
CCOC(=O)N1CCN(C/C(C)=C/c2ccccc2)CC1	inconclusive: -40.8%
COc1cc2sc(-c3ccc(S(C)(=O)=O)cc3)c(C(=O)NCCCCO)c2cc1OC	inactive: 27.9%
CC(O)(c1cccc(F)c1)c1nc(-c2cc3ccccc3o2)cs1 (configuration not stated)	inconclusive: -48.7%
CCCCNC(=O)C1c2ccccc2OCC(=O)N1CCOC (configuration not stated)	inactive: -21.9%
CCc1ccc2c(c1)C1(NN=C(c3ccccc3)S1)C(=O)N2 (configuration not stated)	active: -60.6%
COc1ccc(C(=O)Nc2nncs2)cc1S(=O)(=O)N1CCOCC1	inconclusive: -34.2%
CC1(Br)C(Sc2ccccc2[N+](=O)[O-])=Nc2ccccc21 (configuration not stated)	active: -50.7%
CC1CN(C(=O)COC(=O)c2cncc(Br)c2)CC(C)O1 (configuration not stated)	active: -54.2%
COc1ccccc1CNC(=O)CN1C(=O)c2ccc([N+](=O)[O-])cc2C1=O	inactive: 14.7%
Cc1ccc(N(CC(=O)N/N=C/c2cc(C)n(-c3ccccc3)c2C)S(C)(=O)=O)c(C)c1	inconclusive: -38.5%
O=C(NC(=S)N1CCN(Cc2ccc3c(c2)OCO3)CC1)c1cccc(Br)c1	inconclusive: -44.8%

SMILES	max response, negative = inhibition
Cc1cc(=O)[nH]c(SCC(N)=O)c1C#N	active: -50.3%
CCOc1ncccc1C(=O)NCCCSc1ccccc1	inactive: -6.85%
COc1cc(C(C)=O)ccc1OCC(O)CN1CCN(c2ccc(C)cc2C)CC1 (configuration not stated)	active: -66.8%
Cc1ccccc1NC(=O)C(NS(=O)(=O)c1ccc2c(c1)c(=O)n(C)c(=O)n2C)c1ccccc1 (configuration not stated)	inconclusive: -43.6%
CC1(C)Oc2ccc(C(=O)NC3CCCC3)cc2N(CC(=O)NC2CCCC2)C1=O	active: -75.8%
O=C(COC(=O)CSc1ccccc1)NC1CCS(=O)(=O)C1 (configuration not stated)	inactive: -6.46%
O=C(Cn1nnc(-c2ccc(Cl)cc2)n1)NC1CC2CCC1C2 (configuration not stated)	inactive: 2.73%
COc1cccc(CNC2CCCc3ccccc32)c1OC (configuration not stated)	inconclusive: -36.9%
COCCSc1nnc(NC(=O)COC)s1	inconclusive: -36.2%
Cc1ccc(NC(=O)COc2coc(CN3c4ccccc4CC3C)cc2=O)c(C)c1 (configuration not stated)	inconclusive: -32.9%
CCN1CCn2c1nc(N1CCCCC1)nc2=O	inconclusive: -30.1%
COc1ccc(OCCCC(=O)Nc2cc(S(=O)(=O)N3CCCCC3)ccc2OC)cc1	inconclusive: -48.7%
COc1ccc(CN2C3CCCC2CC(NC(=O)/C=C/c2ccccc2)C3)cc1 (configuration not stated)	active: -111%
CSc1ccccc1NC(=O)Nc1cccc(Cl)c1	inconclusive: -33.3%
Nc1c2nc(-c3ccccc3Cl)[nH]c(=O)c2nc(=O)n1-c1ccccc1	inconclusive: -44.6%
CN(C)c1ccc(NC(=S)c2ccc3ccccc3n2)cc1	active: -50.8%
COc1ccc(C)cc1Nc1c2c(nc3ccccc13)CCC2	inconclusive: -45.4%
O=C(NCC(c1ccc(F)cc1)N1CCOCC1)c1ccc(-c2ccccc2)cc1 (configuration not stated)	inactive: -8.56%
CCc1nc2c(OCC(=O)C(C)(C)C)cccn2c1N(C=O)CC(=O)N(C)C	active: -98.3%

SMILES	max response, negative = inhibition
O=c1c2c3c(sc2nc2n1CCCC2)CCCCC3	inconclusive: -43.6%
NC(=O)CC(NC(=O)Cc1cccc2ccccc12)c1ccc(NCc2cc(F)ccc2F)c([N+](=O)[O-])c1 (configuration not stated)	inconclusive: -35.2%
CN1CCN(CC(=O)Nc2ccccc2[N+](=O)[O-])CC1	inconclusive: -30.7%
O=C(CCN1C(=O)S/C(=C\c2ccc(Cl)cc2)C1=O)Nc1ccc(C(=O)O)cc1	inactive: -8.9%
Clc1ccc(-c2ccc(CNCC3CCCO3)o2)cc1 (configuration not stated)	inconclusive: -49.6%
CCc1cc(C(c2ccc(OC)c(OC)c2)N2CCOCC2)c(NC(=O)c2ccccc2)s1 (configuration not stated)	inactive: 0%
COc1ccc(N2CCN(C(=O)CN=C3NS(=O)(=O)C(c4ccc(C)cc4)=C3C)CC2)cc1	active: -79.1%
CCCN1CC=C2C(C#N)=C(N)C(C#N)(C#N)C(c3cccc(OC)c3OC)C2C1 (configuration not stated)	inconclusive: -30.3%
COc1cc(-c2nnc(COC(=O)c3cc(C)no3)o2)cc(OC)c1OC	inconclusive: -39.3%
CCOC(=O)CN1C(=O)C(O)=C(C(C)=O)C1c1ccc([N+](=O)[O-])cc1 (configuration not stated)	inconclusive: -46.2%
CCOC(=O)CSCc1c(C#N)c2ccccc2n1C	active: -52.4%
CCNC(=O)N1CCN(CCCC(c2ccc(F)cc2)c2ccc(F)cc2)CC1	active: -114%
COc1cccc(NC(=S)N(CCCN2CCCC2)Cc2cccn2Cc2ccc(Cl)cc2)c1	inconclusive: -47.1%
Cc1cccc(C(=O)NNC(=S)NC(=O)c2ccccc2)c1	inactive: 4.07%
COCOCCn1cc(CN2CCS(=O)(=O)N(Cc3ccc(-c4ccc(Cl)c(Cl)c4)cc3)C(C)C2=O)nn1 (configuration not stated)	inconclusive: -39.8%
Cc1ccc(/C=C/C(=O)N2CCN(c3ccc(F)cc3)CC2)o1	inactive: 8.06%
COc1cc(NC(=O)CN2CCN(c3ccccn3)CC2)cc(OC)c1OC	inactive: -15.8%
O=c1c2ccccc2nc(SCc2cc(F)ccc2F)n1C1CCCC1	inconclusive: -34.7%
OC(COc1ccccc1F)CN1CCC(Cc2ccccc2)CC1 (configuration not stated)	active: -81.4%

In another format: results already given
CCCN1CC=C2C(C#N)=C(N)C(C#N)(C#N)C(c3cccc(OC)c3OC)C2C1 (configuration not stated)
  max response, negative = inhibition: inconclusive: -30.3%
CCOC(=O)CSCc1c(C#N)c2ccccc2n1C
  max response, negative = inhibition: active: -52.4%
COc1cccc(NC(=S)N(CCCN2CCCC2)Cc2cccn2Cc2ccc(Cl)cc2)c1
  max response, negative = inhibition: inconclusive: -47.1%
COCOCCn1cc(CN2CCS(=O)(=O)N(Cc3ccc(-c4ccc(Cl)c(Cl)c4)cc3)C(C)C2=O)nn1 (configuration not stated)
  max response, negative = inhibition: inconclusive: -39.8%
